{
  "source": "the supplement of paper PMC7125110",
  "parents": {"B1": {"name": "glmS ribozyme (parent)", "chain": "AUAAAAGCGCCAGAACUACAGAAAUGUAGUUGACGAGGAGGAGGUUUAUCGAAUUUUCGGCGGAUGCCUCCAAA"}},
  "note": "± gives the standard error. Many of these values have a large error.",
  "data": [
    {"variants_of": "B1", "experiment": "KM; higher = weaker cofactor use; RNA array", "conditions": "with glucosamine-6-phosphate", "how_it_was_run": "(§1)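 kobs was derived by fitting per-tile medians to one- or two-exponential decays after normalising signals to baseline and to non-cleaving reference variants. Those signals came from barcoded ribozyme variants transcribed in situ by E. coli RNA polymerase on sequenced MiSeq chips, followed through a hybridised Cy3 probe at 37 °C and imaged over ~14 h. Glucosamine-6-phosphate (40 μM to 10 mM) in HEPES/KCl/Mg(OAc)2 buffer was flowed in. Weighted Michaelis–Menten fits across concentrations then gave kcat and KM.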", "units": {"KM": "µM"}, "values": [
      {"variant": "A6C A12C U57G", "KM": "381 ± 260"},
      {"variant": "A6C A15C", "KM": "13400 ± 1200"},
      {"variant": "A6C A53G", "KM": "3110 ± 770"},
      {"variant": "A6C C16U", "KM": "13300 ± 5100"},
      {"variant": "A6C C50G C61G", "KM": "74.7 ± 57"},
      {"variant": "A6C C70U", "KM": "1350 ± 110"},
      {"variant": "A6C C71A", "KM": "205 ± 38"},
      {"variant": "A6C G13A A36U U56G", "KM": "180 ± 90"},
      {"variant": "A6C G59A", "KM": "822 ± 510"},
      {"variant": "A6C U47C", "KM": "526 ± 77"},
      {"variant": "A6C U55C", "KM": "6150 ± 3900"},
      {"variant": "A6C U69A", "KM": "94.9 ± 95"},
      {"variant": "A6G A53U", "KM": "1940 ± 560"},
      {"variant": "A6U A15G", "KM": "12100 ± 5000"},
      {"variant": "A6U A36C G38A A52U", "KM": "766 ± 630"},
      {"variant": "A6U C10G", "KM": "41.9 ± 39"},
      {"variant": "A6U C61G", "KM": "18.1 ± 17"},
      {"variant": "A6U C67A", "KM": "302 ± 250"},
      {"variant": "A6U C71A", "KM": "1730 ± 140"},
      {"variant": "A6U G13U", "KM": "5530 ± 4000"},
      {"variant": "A6U G29A", "KM": "532 ± 350"},
      {"variant": "A6U G66A", "KM": "3170 ± 600"},
      {"variant": "A6U G66U", "KM": "1280 ± 630"},
      {"variant": "A6U U31G", "KM": "1140 ± 620"},
      {"variant": "A6U U46C", "KM": "2710 ± 290"},
      {"variant": "A6U U49A C71G", "KM": "120 ± 99"},
      {"variant": "G7A A15G U54G", "KM": "22900 ± 13000"},
      {"variant": "G7A U45C", "KM": "50.4 ± 36"},
      {"variant": "G7C G37C", "KM": "63.3 ± 33"},
      {"variant": "G7U U55A", "KM": "29.5 ± 21"},
      {"variant": "C8A C70A", "KM": "559 ± 430"},
      {"variant": "C8A G35U", "KM": "155 ± 140"},
      {"variant": "C8G G37U", "KM": "3520 ± 1900"},
      {"variant": "G9A A12C", "KM": "25.4 ± 23"},
      {"variant": "G9A C67A", "KM": "1810 ± 1700"},
      {"variant": "G9A C71U", "KM": "26400 ± 2900"},
      {"variant": "G9A G37C", "KM": "402 ± 370"},
      {"variant": "G9A U31A", "KM": "11500 ± 610"},
      {"variant": "G9U A33U", "KM": "35.8 ± 24"},
      {"variant": "G9U C58G", "KM": "44.8 ± 23"},
      {"variant": "G9U U47C", "KM": "15.2 ± 15"},
      {"variant": "C10A A52G", "KM": "315 ± 170"},
      {"variant": "C10A G32A", "KM": "437 ± 230"},
      {"variant": "C10G A12G A53C G59C", "KM": "7470 ± 4800"},
      {"variant": "C10G A12U", "KM": "26500 ± 14000"},
      {"variant": "C10G A64G", "KM": "90.7 ± 59"},
      {"variant": "C10G C61G", "KM": "86.8 ± 66"},
      {"variant": "C10G U46A", "KM": "19.5 ± 12"},
      {"variant": "C10G U47G G60C", "KM": "1460 ± 1000"},
      {"variant": "C10U A36C", "KM": "175 ± 95"},
      {"variant": "C10U C50G", "KM": "51.5 ± 26"},
      {"variant": "C10U C58U", "KM": "1.81 ± 1.6"},
      {"variant": "C10U C67U", "KM": "2340 ± 1900"},
      {"variant": "C10U G32A", "KM": "156 ± 86"},
      {"variant": "C10U G35A", "KM": "118 ± 97"},
      {"variant": "C10U G66U", "KM": "17.6 ± 14"},
      {"variant": "C10U U30C G59A G60A C70U", "KM": "165 ± 84"},
      {"variant": "C10U U56C", "KM": "1420 ± 710"},
      {"variant": "C11A A14G U65G", "KM": "1370 ± 200"},
      {"variant": "C11A A15C C70A", "KM": "52.2 ± 33"},
      {"variant": "C11A A36U", "KM": "573 ± 550"},
      {"variant": "C11A A52U C67G", "KM": "122 ± 88"},
      {"variant": "C11A C16G", "KM": "16900 ± 6000"},
      {"variant": "C11A C67U", "KM": "217 ± 130"},
      {"variant": "C11A G32U", "KM": "15200 ± 12000"},
      {"variant": "C11A G59U", "KM": "2310 ± 700"},
      {"variant": "C11A U47A", "KM": "2210 ± 1300"},
      {"variant": "C11A U49G U57G", "KM": "82.1 ± 59"},
      {"variant": "C11A U55C", "KM": "1650 ± 880"},
      {"variant": "C11A U55G", "KM": "1740 ± 1400"},
      {"variant": "C11G C50G", "KM": "105 ± 59"},
      {"variant": "C11U A14C", "KM": "2630 ± 1500"},
      {"variant": "C11U A14C C70U", "KM": "879 ± 860"},
      {"variant": "C11U A14U C16G", "KM": "12800 ± 4300"},
      {"variant": "C11U A53U", "KM": "2120 ± 1200"},
      {"variant": "C11U C16G", "KM": "2850 ± 410"},
      {"variant": "C11U C16U C71U", "KM": "1100 ± 540"},
      {"variant": "C11U G29U", "KM": "3980 ± 2700"},
      {"variant": "C11U G37C U57A", "KM": "257 ± 190"},
      {"variant": "C11U G40A", "KM": "5980 ± 4500"},
      {"variant": "C11U U46C", "KM": "1740 ± 1400"}
    ]},
    {"variants_of": "B1", "experiment": "self-cleavage kobs at 640 uM GlcN6P; higher = faster cleavage; RNA array", "conditions": "with glucosamine-6-phosphate", "how_it_was_run": "as §1", "units": {"self-cleavage kobs at 640 uM GlcN6P": "s⁻¹"}, "values": [
      {"variant": "A6C C16U", "self-cleavage kobs at 640 uM GlcN6P": "1.79e-05 ± 1.4e-05"},
      {"variant": "A6C U55C", "self-cleavage kobs at 640 uM GlcN6P": "2.74e-05 ± 1.7e-05"},
      {"variant": "A6U U31G", "self-cleavage kobs at 640 uM GlcN6P": "2.17e-05 ± 1.6e-05"},
      {"variant": "A6U U49A C71G", "self-cleavage kobs at 640 uM GlcN6P": "3.2e-05 ± 2.3e-05"},
      {"variant": "C10U G32A", "self-cleavage kobs at 640 uM GlcN6P": "2.48e-05 ± 1.6e-05"},
      {"variant": "C11A A15C C70A", "self-cleavage kobs at 640 uM GlcN6P": "4.33e-05 ± 3.7e-05"}
    ]},
    {"variants_of": "B1", "experiment": "self-cleavage kobs at 2500 uM GlcN6P; higher = faster cleavage; RNA array", "conditions": "with glucosamine-6-phosphate", "how_it_was_run": "as §1", "units": {"self-cleavage kobs at 2500 uM GlcN6P": "s⁻¹"}, "values": [
      {"variant": "A6C C71A", "self-cleavage kobs at 2500 uM GlcN6P": "2.17e-05 ± 1.5e-05"},
      {"variant": "C11A A15C C70A", "self-cleavage kobs at 2500 uM GlcN6P": "3.54e-05 ± 2.7e-05"},
      {"variant": "C11A A52U C67G", "self-cleavage kobs at 2500 uM GlcN6P": "2.95e-05 ± 2.6e-05"},
      {"variant": "C11A C16G", "self-cleavage kobs at 2500 uM GlcN6P": "2.09e-05 ± 1.9e-05"}
    ]},
    {"variants_of": "B1", "experiment": "self-cleavage kobs at 160 uM GlcN6P; higher = faster cleavage; RNA array", "conditions": "with glucosamine-6-phosphate", "how_it_was_run": "as §1", "units": {"self-cleavage kobs at 160 uM GlcN6P": "s⁻¹"}, "values": [
      {"variant": "A6U A15G", "self-cleavage kobs at 160 uM GlcN6P": "2.92e-05 ± 2.7e-05"},
      {"variant": "A6U U49A C71G", "self-cleavage kobs at 160 uM GlcN6P": "1.89e-05 ± 1.9e-05"},
      {"variant": "C11U A14C C70U", "self-cleavage kobs at 160 uM GlcN6P": "2.63e-05 ± 1.6e-05"},
      {"variant": "C11U C16G", "self-cleavage kobs at 160 uM GlcN6P": "2.31e-05 ± 1.3e-05"}
    ]},
    {"variants_of": "B1", "experiment": "self-cleavage kobs at 10000 uM GlcN6P; higher = faster cleavage; RNA array", "conditions": "with glucosamine-6-phosphate", "how_it_was_run": "as §1", "units": {"self-cleavage kobs at 10000 uM GlcN6P": "s⁻¹"}, "values": [
      {"variant": "A6U U46C", "self-cleavage kobs at 10000 uM GlcN6P": "1.89e-05 ± 1.1e-05"},
      {"variant": "G9A C71U", "self-cleavage kobs at 10000 uM GlcN6P": "1.57e-05 ± 1.6e-05"},
      {"variant": "C10G A12U", "self-cleavage kobs at 10000 uM GlcN6P": "2.24e-05 ± 1.3e-05"},
      {"variant": "C10U U56C", "self-cleavage kobs at 10000 uM GlcN6P": "1.79e-05 ± 1.7e-05"},
      {"variant": "C11A G32U", "self-cleavage kobs at 10000 uM GlcN6P": "2.07e-05 ± 1.1e-05"}
    ]},
    {"variants_of": "B1", "experiment": "self-cleavage kobs at 40 uM GlcN6P; higher = faster cleavage; RNA array", "conditions": "with glucosamine-6-phosphate", "how_it_was_run": "as §1", "units": {"self-cleavage kobs at 40 uM GlcN6P": "s⁻¹"}, "values": [
      {"variant": "C11U A14C", "self-cleavage kobs at 40 uM GlcN6P": "1.41e-05 ± 1.1e-05"},
      {"variant": "C11U A53U", "self-cleavage kobs at 40 uM GlcN6P": "1.85e-05 ± 1.2e-05"},
      {"variant": "C11U G29U", "self-cleavage kobs at 40 uM GlcN6P": "2.48e-05 ± 1.3e-05"}
    ]}
  ]
}
